Test system: Pfa1 cells
Experiment: Cellular toxicity, same assay as Example B.4 without TAM (Example B.5)
Format: cell-based, mouse
Details: TC50 divided by IC50 from Example B.4
Text: Cellular Toxicity of Compounds of the Invention
An estimate of the toxicity for compounds of the invention was obtained by using the same assay as described in Example B.4, but without the addition of TAM. […] Such TC50 values obtained for certain compounds disclosed herein, together with an approximate therapeutic window (estimated by dividing each TC50 by the corresponding IC50 determined from example B.4) are shown in Table 3.

Compound | Therapeutic Window (approx.. fold) [fold]
Clc1ccccc1CNC1=Nc2ccccc2NC12CCNCC2 [N-1] | >500
Clc1cccc(CNC2=Nc3ccccc3NC23CCNCC3)c1 [N-2] | >500
Clc1ccc(CNC2=Nc3ccccc3NC23CCNCC3)cc1 [N-3] | >5000
Fc1cccc(CNC2=Nc3ccccc3NC23CCNCC3)c1 [N-5] | >200
COc1cccc(CNC2=Nc3ccccc3NC23CCNCC3)c1 [N-14] | >100
FC(F)(F)c1cccc(CNC2=Nc3ccccc3NC23CCNCC3)c1 [N-23] | >1000
Clc1ccc(CNC2=Nc3ccccc3NC23CCNCC3)c(Cl)c1 [N-56] | >1000
Fc1cc(Cl)ccc1CNC1=Nc2ccccc2NC12CCNCC2 [N-61] | >1000
Clc1cccc(CCNC2=Nc3ccccc3NC23CCNCC3)c1 [N-79] | >50
CN1CCC2(CC1)Nc1ccccc1N=C2NCc1cccc(Cl)c1 [N-90] | >500
CC(=O)N1CCC2(CC1)Nc1ccccc1N=C2NCc1cccc(Cl)c1 [N-99] | >100
Cc1cc2c(cc1C)NC1(CCNCC1)C(NCc1cccc(Cl)c1)=N2 [N-111] | >1000
Clc1cccc(CNC2=Nc3cc(Cl)c(Cl)cc3NC23CCNCC3)c1 [N-115] | >200
Fc1cc2c(cc1F)NC1(CCNCC1)C(NCc1cccc(Cl)c1)=N2 [N-117] | >20
CN1CCC2(CC1)Nc1ccccc1N=C2NCc1ccccc1 [N-204] | >50
Clc1cc2c(cc1Cl)NC1(CCNCC1)C(NCc1ccccc1)=N2 [N-205] | >100
c1ccc(CNC2=Nc3ccccc3NC23CCNCC3)cc1 [N-206] | >100
Clc1cc2c(cc1Cl)NC1(CCNCC1)C(NCc1ccccc1Cl)=N2 [N-207] | >500
Clc1ccc(CNC2=Nc3cc(Cl)c(Cl)cc3NC23CCNCC3)cc1 [N-208] | >500
CN1CCC2(CC1)Nc1ccccc1N=C2NCc1ccccc1Cl [N-209] | >100
Cc1cc2c(cc1C)NC1(CCNCC1)C(NCc1ccccc1)=N2 [N-210] | >1000
Clc1ccc(CNC2=Nc3ccccc3NC23CCNCC3)cc1Cl [N-211] | >1000

Compound | Therapeutic Window (approx.. fold) [fold]
c1ccc(CNC2=Nc3ccccc3NC23CCCNCC3)cc1 (centres unmarked) [N-212] | >10
CN1CCC2(CC1)Nc1ccccc1N=C2NCc1ccc(Cl)cc1 [N-213] | >100
Cc1cc2c(cc1C)NC1(CCNCC1)C(NCc1ccc(Cl)cc1)=N2 [N-214] | >1000
CN1CCC2(CC1)Nc1ccccc1N=C2NCc1cccc(C(F)(F)F)c1 [N-215] | >500
CCCCCCCC(=O)N1CCC2(CC1)Nc1ccccc1N=C2NCc1ccccc1 [N-216] | >20
Cc1cc(C)cc(CNC2=Nc3ccccc3NC23CCNCC3)c1 [N-217] | >200
CC(NC1=Nc2ccccc2NC12CCNCC2)c1ccccc1 (centres unmarked) [N-218] | >100
Clc1cccc(CNC2=Nc3cc4c(cc3NC23CCNCC3)OCCO4)c1 [N-219] | >50
c1ccc(C(CNC2=Nc3ccccc3NC23CCNCC3)c2ccccc2)cc1 [N-220] | >200
Fc1ccc(CNC2=Nc3ccccc3NC23CCNCC3)c(F)c1 [N-221] | >200
CC(CCc1ccccc1)NC1=Nc2ccccc2NC12CCNCC2 (centres unmarked) [N-222] | >200
Fc1cc2c(cc1F)NC1(CCNCC1)C(NCc1ccccc1)=N2 [N-223] | >1000
Cc1cccc(CNC2=Nc3cc(Cl)c(Cl)cc3NC23CCNCC3)c1 [N-224] | >1000
c1ccc(CCCCNC2=Nc3ccccc3NC23CCNCC3)cc1 [N-225] | >50
c1ccc(CCNC2=Nc3ccccc3NC23CCNCC3)cc1 [N-226] | >200
CC(C)(C)c1ccc(CNC2=Nc3ccccc3NC23CCNCC3)cc1 [N-227] | >200
c1ccc(CCCNC2=Nc3ccccc3NC23CCNCC3)cc1 [N-228] | >50
CN1CCC2(CC1)Nc1cc(F)c(F)cc1N=C2NCc1ccccc1 [N-229] | >50
CN1CCC2(CC1)Nc1cc(Cl)c(Cl)cc1N=C2NCc1ccccc1 [N-230] | >200
Fc1cccc(F)c1CNC1=Nc2ccccc2NC12CCNCC2 [N-231] | >200
Cc1cc2c(cc1C)NC1(CCNCC1)C(NCc1ccc(Cl)c(Cl)c1)=N2 [N-232] | >1000
Cc1cc2c(cc1C)NC1(CCN(C)CC1)C(NCc1ccccc1)=N2 [N-233] | >50

Compound | Therapeutic Window (approx.. fold) [fold]
CCCCCCCCN1CCC2(CC1)Nc1ccccc1N=C2NCc1ccccc1 [N-234] | >50
Cc1cccc(CNC2=Nc3cc(C)c(C)cc3NC23CCNCC3)c1 [N-235] | >20
Clc1cc2c(cc1Cl)NC1(CCCNCC1)C(NCc1ccccc1)=N2 (centres unmarked) [N-236] | >50
CC1CC2(CCN1)Nc1ccccc1N=C2NCc1cccc(Cl)c1 (centres unmarked) [N-239] | >10
CC1CC2(CCN1)Nc1ccccc1N=C2NCc1ccccc1 (centres unmarked) [N-240] | >50
Cc1cc2c(cc1C)NC1(CCNCC1)C(NCc1cccc(C(F)(F)F)c1)=N2 [N-251] | >10
CC1CN(C)CCC12Nc1ccccc1N=C2NCc1ccccc1 (centres unmarked) [N-256] | >20
Cc1cc2c(cc1C)NC1(CCNCC1)C(NCc1cccc(F)c1)=N2 [N-257] | >20
Clc1ccc(CNC2=Nc3cc(Cl)c(Cl)cc3NC23CCNCC3)cc1Cl [N-258] | >2
Fc1cc2c(cc1F)NC1(CCNCC1)C(NCc1ccccc1Cl)=N2 [N-259] | >50
FC(F)(F)c1cccc(CNC2=Nc3cc(Cl)c(Cl)cc3NC23CCNCC3)c1 [N-260] | >20
CCCCCCCCCCCCN1CCC2(CC1)Nc1ccccc1N=C2NCc1ccccc1 [N-261] | >20
Cc1cc(C)cc(CNC2=Nc3cc(C)c(C)cc3NC23CCNCC3)c1 [N-262] | >10
Clc1ccccc1CNC1=Nc2ccccc2NC12CCOCC2 [O/S-1] | >100
Clc1cccc(CNC2=Nc3ccccc3NC23CCOCC3)c1 [O/S-2] | >50
Clc1ccc(CNC2=Nc3ccccc3NC23CCOCC3)cc1 [O/S-3] | >50
Fc1cccc(CNC2=Nc3ccccc3NC23CCOCC3)c1 [O/S-5] | >50
Cc1cccc(CNC2=Nc3ccccc3NC23CCOCC3)c1 [O/S-11] | >50
COc1cccc(CNC2=Nc3ccccc3NC23CCOCC3)c1 [O/S-14] | >20
FC(F)(F)c1cccc(CNC2=Nc3ccccc3NC23CCOCC3)c1 [O/S-23] | >100
Fc1cc(Cl)ccc1CNC1=Nc2ccccc2NC12CCOCC2 [O/S-61] | >50
Clc1cccc(CCNC2=Nc3ccccc3NC23CCOCC3)c1 [O/S-79] | >50

Compound | Therapeutic Window (approx.. fold) [fold]
Clc1cccc(CNC2=Nc3cc(Cl)c(Cl)cc3NC23CCOCC3)c1 [O/S-94] | >200
Clc1ccccc1CNC1=Nc2ccccc2NC12CCSCC2 [O/S-167] | >100
Clc1cccc(CNC2=Nc3ccccc3NC23CCSCC3)c1 [O/S-168] | >200
Clc1ccc(CNC2=Nc3ccccc3NC23CCSCC3)cc1 [O/S-169] | >50
FC(F)(F)c1cccc(CNC2=Nc3ccccc3NC23CCSCC3)c1 [O/S-189] | >20
c1ccc(CNC2=Nc3ccccc3NC23CCOCC3)cc1 [O/S-337] | >20
c1ccc(CNC2=Nc3ccccc3NC23CCSCC3)cc1 [O/S-338] | >100
Clc1cc2c(cc1Cl)NC1(CCOCC1)C(NCc1ccccc1)=N2 [O/S-339] | >1000
Cc1cc2c(cc1C)NC1(CCOCC1)C(NCc1ccccc1)=N2 [O/S-340] | >100
Fc1cccc(F)c1CNC1=Nc2ccccc2NC12CCOCC2 [O/S-341] | >50
Cc1cccc(CNC2=Nc3cc(Cl)c(Cl)cc3NC23CCOCC3)c1 [O/S-342] | >500
c1ccc(CCCNC2=Nc3ccccc3NC23CCOCC3)cc1 [O/S-343] | >20
Cc1cc(C)cc(CNC2=Nc3ccccc3NC23CCOCC3)c1 [O/S-344] | >50
Clc1ccc(CNC2=Nc3ccccc3NC23CCOCC3)cc1Cl [O/S-345] | >500
Fc1cc2c(cc1F)NC1(CCOCC1)C(NCc1ccccc1)=N2 [O/S-346] | >200
c1ccc(CCNC2=Nc3ccccc3NC23CCOCC3)cc1 [O/S-347] | >20
CC(NC1=Nc2ccccc2NC12CCOCC2)c1ccccc1 (centres unmarked) [O/S-348] | >20
Clc1cc2c(cc1Cl)NC1(CCSCC1)C(NCc1ccccc1)=N2 [O/S-349] | >200
CC(C)(C)c1ccc(CNC2=Nc3ccccc3NC23CCOCC3)cc1 [O/S-350] | >100
Fc1cccc(F)c1CNC1=Nc2ccccc2NC12CCSCC2 [O/S-351] | >100

— patent publication US10280179B2, “Spiroquinoxaline derivatives as inhibitors of non-apoptotic regulated cell-death” (Helmholtz Zentrum Munchen—Deutches Forschungszentrum Fur …, priority 2013, dated 2019)
